No constants are given. Whether binding was seen depends on the method and setting. In cells and extracts the contact can be indirect. Some results given as binding are weak or reduced against the parent protein; the word gives no strength.

The chains behind the UniProt entries cited, without tags or fusion partners.
UniProt Q92766: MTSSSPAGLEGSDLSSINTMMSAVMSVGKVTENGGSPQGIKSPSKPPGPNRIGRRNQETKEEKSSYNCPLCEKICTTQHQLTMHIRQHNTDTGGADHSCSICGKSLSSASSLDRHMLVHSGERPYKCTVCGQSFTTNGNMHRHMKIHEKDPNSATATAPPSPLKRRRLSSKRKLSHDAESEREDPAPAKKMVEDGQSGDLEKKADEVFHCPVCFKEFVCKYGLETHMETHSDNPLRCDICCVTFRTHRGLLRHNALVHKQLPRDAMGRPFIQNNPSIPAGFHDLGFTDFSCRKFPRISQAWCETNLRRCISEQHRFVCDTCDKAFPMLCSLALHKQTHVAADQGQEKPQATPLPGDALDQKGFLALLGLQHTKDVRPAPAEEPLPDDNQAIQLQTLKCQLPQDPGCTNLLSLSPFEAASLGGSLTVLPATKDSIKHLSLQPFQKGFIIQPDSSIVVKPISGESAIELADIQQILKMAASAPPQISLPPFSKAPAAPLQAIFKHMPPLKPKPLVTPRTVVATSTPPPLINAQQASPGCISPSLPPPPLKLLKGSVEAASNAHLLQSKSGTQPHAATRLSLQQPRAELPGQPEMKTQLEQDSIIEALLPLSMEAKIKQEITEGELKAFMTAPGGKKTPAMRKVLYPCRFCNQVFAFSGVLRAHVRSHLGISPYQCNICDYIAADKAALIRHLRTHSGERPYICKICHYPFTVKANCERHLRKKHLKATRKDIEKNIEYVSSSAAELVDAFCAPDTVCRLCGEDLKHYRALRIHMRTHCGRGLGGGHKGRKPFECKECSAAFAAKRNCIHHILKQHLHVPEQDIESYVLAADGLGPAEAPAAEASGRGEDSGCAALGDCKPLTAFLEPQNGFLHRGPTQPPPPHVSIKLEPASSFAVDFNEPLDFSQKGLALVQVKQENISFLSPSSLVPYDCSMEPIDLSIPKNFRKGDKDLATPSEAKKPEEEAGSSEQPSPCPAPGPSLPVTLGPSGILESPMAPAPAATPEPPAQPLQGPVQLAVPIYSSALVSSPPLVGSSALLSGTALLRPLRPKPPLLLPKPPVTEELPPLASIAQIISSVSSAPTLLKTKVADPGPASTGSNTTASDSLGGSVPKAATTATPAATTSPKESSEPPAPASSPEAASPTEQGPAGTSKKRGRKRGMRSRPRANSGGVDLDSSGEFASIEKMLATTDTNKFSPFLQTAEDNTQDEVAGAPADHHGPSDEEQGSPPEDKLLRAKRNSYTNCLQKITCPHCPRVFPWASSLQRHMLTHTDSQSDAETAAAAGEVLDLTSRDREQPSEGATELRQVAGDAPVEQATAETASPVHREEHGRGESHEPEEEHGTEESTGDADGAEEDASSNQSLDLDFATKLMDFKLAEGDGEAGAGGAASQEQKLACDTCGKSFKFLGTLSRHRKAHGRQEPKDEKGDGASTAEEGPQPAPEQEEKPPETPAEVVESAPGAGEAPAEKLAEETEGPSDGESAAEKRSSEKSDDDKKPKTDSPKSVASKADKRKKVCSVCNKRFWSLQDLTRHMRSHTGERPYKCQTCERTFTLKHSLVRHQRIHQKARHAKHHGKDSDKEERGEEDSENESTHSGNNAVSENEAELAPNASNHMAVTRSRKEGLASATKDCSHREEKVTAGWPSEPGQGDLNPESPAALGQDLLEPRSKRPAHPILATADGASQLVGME
UniProt P08047: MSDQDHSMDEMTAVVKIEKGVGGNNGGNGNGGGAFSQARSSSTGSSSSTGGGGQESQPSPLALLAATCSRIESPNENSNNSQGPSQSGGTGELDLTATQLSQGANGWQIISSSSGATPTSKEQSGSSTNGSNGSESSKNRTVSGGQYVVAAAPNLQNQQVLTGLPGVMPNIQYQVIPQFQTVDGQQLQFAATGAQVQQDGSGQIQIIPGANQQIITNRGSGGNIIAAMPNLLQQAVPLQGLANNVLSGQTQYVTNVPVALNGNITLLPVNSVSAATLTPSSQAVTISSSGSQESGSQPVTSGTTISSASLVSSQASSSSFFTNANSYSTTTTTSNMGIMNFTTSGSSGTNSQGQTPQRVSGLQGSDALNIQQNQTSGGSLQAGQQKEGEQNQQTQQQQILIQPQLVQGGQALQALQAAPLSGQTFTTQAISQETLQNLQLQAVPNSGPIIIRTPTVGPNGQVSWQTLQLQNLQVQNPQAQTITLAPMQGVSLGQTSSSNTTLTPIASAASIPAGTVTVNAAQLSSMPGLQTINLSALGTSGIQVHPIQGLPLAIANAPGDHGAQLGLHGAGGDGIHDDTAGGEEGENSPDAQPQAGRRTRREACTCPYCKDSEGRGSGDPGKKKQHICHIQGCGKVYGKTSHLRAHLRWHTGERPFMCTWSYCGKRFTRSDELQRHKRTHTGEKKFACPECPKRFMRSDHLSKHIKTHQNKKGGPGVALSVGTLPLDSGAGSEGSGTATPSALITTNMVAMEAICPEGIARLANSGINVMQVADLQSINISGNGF
UniProt Q99497: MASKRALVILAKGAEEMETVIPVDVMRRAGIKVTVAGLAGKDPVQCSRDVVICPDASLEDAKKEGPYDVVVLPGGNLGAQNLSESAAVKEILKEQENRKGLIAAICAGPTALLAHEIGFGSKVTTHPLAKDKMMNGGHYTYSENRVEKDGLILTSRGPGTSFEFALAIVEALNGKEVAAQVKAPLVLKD

Holding throughout (experiment): co-IP; endogenous proteins of SH-SY5Y nuclear extracts immunoprecipitated with anti-RREB1, anti-DJ-1 or anti-Sp1 antibody or normal IgG; precipitates analysed by Western blotting with anti-RREB1, anti-Sp1 or anti-DJ-1 antibody; n = 3
A general note: Immunoblotting shows a protein as a band on a membrane.

In experiment [1] the target is Ras-responsive element-binding protein 1 (RREB1) (human (endogenous in SH-SY5Y)) (UniProt Q92766).
Experiment [2] deals with Sp1 (human (endogenous in SH-SY5Y)) (UniProt P08047).
For experiment [3], the target named is DJ-1 (human (endogenous in SH-SY5Y)) (UniProt Q99497).

For DJ-1 (from UniProt Q99497 1-189), the results for the binding result in experiment [1] and in experiment [2] were “binds” and “no binding”, respectively.

For the substance Sp1 (from UniProt P08047 1-785), the binding entry in experiment [1] and in experiment [3] was “no binding” throughout.
